From patent publication US10478404B2, “Materials, methods and devices for altering cell reactivity” (The Arizona Board of Regents on behalf of The University of …, priority 2014, dated 2019)
For at least one compound, name, drawing or mass did not settle the structure.

System: platelets
Assay: Shear-induced platelet activation (PAS) with membrane modulators
Assay type: cell-based, human
Conditions: Example 4 data
Procedure: Platelets were obtained as previously described and the effect of […] on biochemical or shear-induced (70 dyn shearing force) platelet activation was determined. Membrane modulation was effected using hydrophobic molecules such as Docosahexaenoic acid (DHA) and Eicosapentaenoic acid (EPA), the structures of which are shown below.
Shear-mediated platelet activation was also measured in the presence of DHA, EPA and wild salmon oil (FIG. 4B-C).
Shear-mediated and biochemical mediated platelet activation was also measured in the presence of the amphipathic molecules, cholesterol and lecithin. Cholesterol adds firmness and integrity to the plasma membrane and prevents it from becoming overly fluid i.e., cholesterol helps the membrane maintain its fluidity. In the studies including cholesterol, cholesterol-treated cells were compared with cells treated with 0.1% DMSO.

Compound	platelet sensitivity to shear stress
CC/C=C\C/C=C\C/C=C\C/C=C\C/C=C\C/C=C\CCC(=O)O [DHA, Docosahexaenoic acid]	increase platelet sensitivity to shear stress
CC/C=C\C/C=C\C/C=C\C/C=C\C/C=C\CCCC(=O)O [EPA, Eicosapentaenoic acid]	increase platelet sensitivity to shear stress
